Measurements reported in the supplement of paper PMC10849652.
This is one part of the list.

Amino acid sequences for entries named in this document (tags omitted). A change or cut given only in a name is not applied to a line headed by its entry.
UniProt O75569: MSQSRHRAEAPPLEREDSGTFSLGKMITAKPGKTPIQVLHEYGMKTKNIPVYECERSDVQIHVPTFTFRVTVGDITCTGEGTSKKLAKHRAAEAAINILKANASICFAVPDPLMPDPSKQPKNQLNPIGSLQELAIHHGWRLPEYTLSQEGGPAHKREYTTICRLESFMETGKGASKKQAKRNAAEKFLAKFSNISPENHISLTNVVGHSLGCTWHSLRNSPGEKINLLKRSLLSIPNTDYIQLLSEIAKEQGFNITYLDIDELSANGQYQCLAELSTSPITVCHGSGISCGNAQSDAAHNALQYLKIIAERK
UniProt Q6P2P2: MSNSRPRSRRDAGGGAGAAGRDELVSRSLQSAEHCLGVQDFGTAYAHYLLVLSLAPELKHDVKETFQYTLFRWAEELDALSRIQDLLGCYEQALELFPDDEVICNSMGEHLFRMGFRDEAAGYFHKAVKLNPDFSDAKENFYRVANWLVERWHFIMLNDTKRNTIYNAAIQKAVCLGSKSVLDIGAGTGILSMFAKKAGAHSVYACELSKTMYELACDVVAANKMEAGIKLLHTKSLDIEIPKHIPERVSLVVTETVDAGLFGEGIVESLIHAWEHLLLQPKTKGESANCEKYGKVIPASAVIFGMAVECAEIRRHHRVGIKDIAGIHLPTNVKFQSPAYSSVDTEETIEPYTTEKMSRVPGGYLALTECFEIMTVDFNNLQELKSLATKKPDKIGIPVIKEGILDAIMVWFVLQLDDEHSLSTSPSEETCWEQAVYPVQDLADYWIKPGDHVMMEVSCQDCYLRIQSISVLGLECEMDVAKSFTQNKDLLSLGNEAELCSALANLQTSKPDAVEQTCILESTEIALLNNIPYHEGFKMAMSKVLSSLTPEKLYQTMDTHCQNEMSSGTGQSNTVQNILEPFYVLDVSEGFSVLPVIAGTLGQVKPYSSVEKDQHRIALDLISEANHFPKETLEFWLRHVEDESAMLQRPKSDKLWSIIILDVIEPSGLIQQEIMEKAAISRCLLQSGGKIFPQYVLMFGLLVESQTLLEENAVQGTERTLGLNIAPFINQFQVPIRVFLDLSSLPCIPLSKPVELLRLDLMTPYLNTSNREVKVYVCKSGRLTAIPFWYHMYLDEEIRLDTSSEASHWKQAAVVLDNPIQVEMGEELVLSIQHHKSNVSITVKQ
UniProt Q8WY54: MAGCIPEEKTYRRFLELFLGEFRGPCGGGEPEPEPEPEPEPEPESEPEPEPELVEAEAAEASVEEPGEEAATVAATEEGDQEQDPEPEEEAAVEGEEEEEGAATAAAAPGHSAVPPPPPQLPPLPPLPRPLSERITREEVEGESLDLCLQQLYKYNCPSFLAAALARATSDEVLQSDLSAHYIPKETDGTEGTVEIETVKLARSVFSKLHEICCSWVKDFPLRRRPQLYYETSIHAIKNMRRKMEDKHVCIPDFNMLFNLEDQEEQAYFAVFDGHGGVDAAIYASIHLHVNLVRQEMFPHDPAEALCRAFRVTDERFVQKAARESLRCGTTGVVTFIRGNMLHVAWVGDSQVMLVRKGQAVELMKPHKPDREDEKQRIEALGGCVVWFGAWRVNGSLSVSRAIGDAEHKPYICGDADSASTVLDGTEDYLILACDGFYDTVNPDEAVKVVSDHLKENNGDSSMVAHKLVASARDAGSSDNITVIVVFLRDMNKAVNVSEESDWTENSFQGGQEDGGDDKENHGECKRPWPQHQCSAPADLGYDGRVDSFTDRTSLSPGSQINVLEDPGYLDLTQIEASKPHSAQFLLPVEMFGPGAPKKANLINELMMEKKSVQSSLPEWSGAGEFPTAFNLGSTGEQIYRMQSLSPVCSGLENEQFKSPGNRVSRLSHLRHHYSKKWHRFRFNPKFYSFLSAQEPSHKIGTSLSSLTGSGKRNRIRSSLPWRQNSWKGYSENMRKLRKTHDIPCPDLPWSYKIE
UniProt O14974: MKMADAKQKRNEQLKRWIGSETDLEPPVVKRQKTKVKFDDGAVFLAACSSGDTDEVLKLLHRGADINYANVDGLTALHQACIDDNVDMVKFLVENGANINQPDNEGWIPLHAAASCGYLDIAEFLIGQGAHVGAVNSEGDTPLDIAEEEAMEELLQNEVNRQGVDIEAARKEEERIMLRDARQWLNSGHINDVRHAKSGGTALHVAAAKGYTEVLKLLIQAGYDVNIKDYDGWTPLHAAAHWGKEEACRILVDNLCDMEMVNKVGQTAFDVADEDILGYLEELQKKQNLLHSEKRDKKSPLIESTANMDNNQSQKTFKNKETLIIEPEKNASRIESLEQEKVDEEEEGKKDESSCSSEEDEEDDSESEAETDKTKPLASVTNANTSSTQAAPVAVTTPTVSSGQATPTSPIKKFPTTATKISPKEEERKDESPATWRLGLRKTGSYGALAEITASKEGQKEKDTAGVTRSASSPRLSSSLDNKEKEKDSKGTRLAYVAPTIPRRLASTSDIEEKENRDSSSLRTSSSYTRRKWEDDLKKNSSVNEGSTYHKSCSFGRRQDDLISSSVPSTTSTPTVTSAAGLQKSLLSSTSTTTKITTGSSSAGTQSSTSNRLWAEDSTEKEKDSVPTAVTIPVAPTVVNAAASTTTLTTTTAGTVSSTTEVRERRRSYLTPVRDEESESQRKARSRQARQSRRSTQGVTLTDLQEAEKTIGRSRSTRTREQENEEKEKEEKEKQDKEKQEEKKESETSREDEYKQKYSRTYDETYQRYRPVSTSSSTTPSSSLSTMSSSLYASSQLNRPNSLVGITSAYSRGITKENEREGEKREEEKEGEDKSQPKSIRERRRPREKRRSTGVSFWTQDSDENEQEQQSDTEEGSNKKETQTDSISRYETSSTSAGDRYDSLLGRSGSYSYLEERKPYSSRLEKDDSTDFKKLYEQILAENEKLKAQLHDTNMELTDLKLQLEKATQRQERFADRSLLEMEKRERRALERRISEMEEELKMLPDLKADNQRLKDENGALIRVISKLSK
UniProt P78395, whole entry, looked up: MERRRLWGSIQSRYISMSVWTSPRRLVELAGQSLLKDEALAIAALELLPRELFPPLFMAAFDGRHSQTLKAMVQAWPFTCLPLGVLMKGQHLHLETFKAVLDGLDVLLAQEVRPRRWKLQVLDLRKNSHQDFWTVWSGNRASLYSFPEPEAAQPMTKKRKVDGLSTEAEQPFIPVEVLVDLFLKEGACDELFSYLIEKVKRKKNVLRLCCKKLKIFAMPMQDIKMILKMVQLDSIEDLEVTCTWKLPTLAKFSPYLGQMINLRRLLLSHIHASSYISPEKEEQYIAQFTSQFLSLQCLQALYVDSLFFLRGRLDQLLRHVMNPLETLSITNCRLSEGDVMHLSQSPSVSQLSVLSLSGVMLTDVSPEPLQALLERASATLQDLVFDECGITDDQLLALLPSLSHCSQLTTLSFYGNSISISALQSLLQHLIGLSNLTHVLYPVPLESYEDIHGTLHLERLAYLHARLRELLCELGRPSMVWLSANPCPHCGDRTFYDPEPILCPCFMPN
UniProt Q9BSG0: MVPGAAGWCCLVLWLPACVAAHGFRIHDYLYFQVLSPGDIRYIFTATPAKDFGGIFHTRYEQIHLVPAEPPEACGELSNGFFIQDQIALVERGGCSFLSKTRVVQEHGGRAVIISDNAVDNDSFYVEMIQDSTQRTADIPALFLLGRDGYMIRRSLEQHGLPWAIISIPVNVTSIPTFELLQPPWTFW
UniProt Q9NVM4: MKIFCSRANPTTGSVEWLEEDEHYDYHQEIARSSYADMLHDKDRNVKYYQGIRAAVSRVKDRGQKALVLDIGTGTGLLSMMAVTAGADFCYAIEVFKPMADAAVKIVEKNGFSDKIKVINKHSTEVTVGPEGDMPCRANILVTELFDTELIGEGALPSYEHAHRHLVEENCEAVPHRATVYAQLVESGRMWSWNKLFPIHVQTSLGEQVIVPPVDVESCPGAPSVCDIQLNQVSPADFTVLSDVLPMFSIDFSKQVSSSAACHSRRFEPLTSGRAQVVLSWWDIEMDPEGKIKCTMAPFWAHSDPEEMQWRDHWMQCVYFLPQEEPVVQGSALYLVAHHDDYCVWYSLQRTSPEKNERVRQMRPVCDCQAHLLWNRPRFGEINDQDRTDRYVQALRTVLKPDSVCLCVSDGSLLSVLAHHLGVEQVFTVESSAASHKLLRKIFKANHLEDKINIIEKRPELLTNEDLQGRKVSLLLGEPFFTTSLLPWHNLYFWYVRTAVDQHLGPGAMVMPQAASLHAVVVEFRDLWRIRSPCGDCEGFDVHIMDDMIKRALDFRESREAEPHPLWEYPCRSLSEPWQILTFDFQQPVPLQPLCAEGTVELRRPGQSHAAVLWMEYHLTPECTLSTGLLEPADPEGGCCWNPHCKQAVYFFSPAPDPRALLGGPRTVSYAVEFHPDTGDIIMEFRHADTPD
UniProt Q9ULJ8: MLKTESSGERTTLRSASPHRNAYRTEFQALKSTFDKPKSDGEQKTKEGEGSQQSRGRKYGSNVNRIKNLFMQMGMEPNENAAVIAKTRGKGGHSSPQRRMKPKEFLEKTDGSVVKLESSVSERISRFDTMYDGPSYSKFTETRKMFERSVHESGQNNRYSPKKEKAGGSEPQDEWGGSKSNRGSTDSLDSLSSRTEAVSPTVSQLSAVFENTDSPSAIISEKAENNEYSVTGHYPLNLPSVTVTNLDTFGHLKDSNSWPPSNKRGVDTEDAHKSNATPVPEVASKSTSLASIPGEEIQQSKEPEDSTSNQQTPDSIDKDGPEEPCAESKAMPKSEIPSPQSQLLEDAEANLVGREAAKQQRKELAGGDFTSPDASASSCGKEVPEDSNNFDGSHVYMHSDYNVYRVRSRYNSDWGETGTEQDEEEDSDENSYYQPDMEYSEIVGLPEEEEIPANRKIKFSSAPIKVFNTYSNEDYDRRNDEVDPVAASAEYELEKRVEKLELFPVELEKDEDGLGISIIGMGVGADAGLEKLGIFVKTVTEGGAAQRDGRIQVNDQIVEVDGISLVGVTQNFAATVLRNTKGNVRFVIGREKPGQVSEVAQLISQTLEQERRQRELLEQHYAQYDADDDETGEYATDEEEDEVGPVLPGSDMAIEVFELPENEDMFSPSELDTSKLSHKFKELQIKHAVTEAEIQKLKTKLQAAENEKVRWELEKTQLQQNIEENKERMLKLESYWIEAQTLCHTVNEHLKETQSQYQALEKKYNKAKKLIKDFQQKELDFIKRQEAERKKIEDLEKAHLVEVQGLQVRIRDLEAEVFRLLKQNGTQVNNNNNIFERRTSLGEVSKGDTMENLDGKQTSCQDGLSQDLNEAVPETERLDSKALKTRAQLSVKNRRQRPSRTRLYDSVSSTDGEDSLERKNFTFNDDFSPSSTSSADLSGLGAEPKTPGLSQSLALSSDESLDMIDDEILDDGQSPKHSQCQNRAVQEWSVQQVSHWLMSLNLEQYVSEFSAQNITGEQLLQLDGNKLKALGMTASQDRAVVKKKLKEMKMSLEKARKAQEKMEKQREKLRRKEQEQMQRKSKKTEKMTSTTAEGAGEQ
UniProt Q9NR22, whole entry, looked up: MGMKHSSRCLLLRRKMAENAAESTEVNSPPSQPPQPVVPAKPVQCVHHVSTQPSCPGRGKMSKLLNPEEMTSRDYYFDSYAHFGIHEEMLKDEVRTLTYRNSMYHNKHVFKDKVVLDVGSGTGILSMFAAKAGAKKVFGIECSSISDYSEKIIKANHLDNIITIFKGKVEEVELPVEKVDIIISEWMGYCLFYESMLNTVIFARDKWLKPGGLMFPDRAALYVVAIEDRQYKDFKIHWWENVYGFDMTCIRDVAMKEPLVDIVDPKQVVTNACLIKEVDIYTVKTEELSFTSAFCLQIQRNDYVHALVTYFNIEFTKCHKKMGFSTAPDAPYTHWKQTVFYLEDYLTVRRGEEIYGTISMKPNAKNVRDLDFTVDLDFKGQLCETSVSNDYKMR

Tests used:
Experiment in all cases: log2 fold change, soluble protein after heating vs DMSO (PISA); higher = thermal stabilisation; K562 cells, 10 uM, 30 min; active = over 0.2 and 3.5 SD of the protein, either way, in both replicates (recomputed)
[1] = compound: COC1=CC=C(C=C1)CN2C=CC3=C2C=C(C=C3)C(=O)NO
How it was run: (§1)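 Soluble protein was defined as the supernatant after 21,000xg for 90 min. It came from K562 cells at 2×10^6 cells/mL given 10 μM compound for 30 min, heated in aliquots for 3 min across 48°C-58°C, pooled, and extracted in PBS with 0.5% NP-40 at 4°C, and was quantified by TMTpro 16plex LC-MS/MS with equalised channel sums. Thermal stability against control samples, from duplicates, is reported as log2 fold change.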

filanesib = compound: CON(C)C(=O)N1N=C(c2cc(F)ccc2F)S[C@@]1(CCCN)c1ccccc1 [filanesib]
How it was run: as §1

zotarolimus = compound: CO[C@H]1C[C@@H]2CC[C@@H](C)[C@@](O)(O2)C(=O)C(=O)N2CCCC[C@H]2C(=O)O[C@H]([C@H](C)C[C@@H]2CC[C@H](n3cnnn3)[C@H](OC)C2)CC(=O)[C@H](C)/C=C(\C)[C@@H](O)[C@@H](OC)C(=O)[C@H](C)C[C@H](C)/C=C/C=C/C=C/1C [zotarolimus]
How it was run: as §1

idasanutlin = compound: COc1cc(C(=O)O)ccc1NC(=O)[C@@H]1N[C@@H](CC(C)(C)C)[C@](C#N)(c2ccc(Cl)cc2F)[C@H]1c1cccc(Cl)c1F [idasanutlin]
How it was run: as §1

alisertib = compound: COc1cc(Nc2ncc3c(n2)-c2ccc(Cl)cc2C(c2c(F)cccc2OC)=NC3)ccc1C(=O)O [alisertib]
How it was run: as §1

[2] = compound: COc1cc2nc(-c3cc(F)ccc3O)nc(N[C@@H]3CNC[C@H]3C(C)(C)O)c2cc1OC
How it was run: as §1

gefitinib = compound: COc1cc2ncnc(Nc3ccc(F)c(Cl)c3)c2cc1OCCCN1CCOCC1 [gefitinib]
How it was run: as §1

[3] = compound: COc1cccc2cc(-c3nc([C@H]4CC[C@H](C(=O)O)CC4)n4ncnc(N)c34)[nH]c12
How it was run: as §1

lapatinib = compound: CS(=O)(=O)CCNCc1ccc(-c2ccc3ncnc(Nc4ccc(OCc5cccc(F)c5)c(Cl)c4)c3c2)o1 [lapatinib]
How it was run: as §1

pictilisib = compound: CS(=O)(=O)N1CCN(Cc2cc3nc(-c4cccc5[nH]ncc45)nc(N4CCOCC4)c3s2)CC1 [pictilisib]
How it was run: as §1

Measured: log2 fold change

PRKRA (UniProt O75569)
inactive: [1] -0.176 | filanesib 0.279 | zotarolimus 0.074 | idasanutlin 0.238 | alisertib -0.134 | [2] -0.111 | gefitinib -0.037 | [3] -0.408 | lapatinib 0.157 | pictilisib -0.258

PRMT9 (UniProt Q6P2P2)
inactive: [1] -0.09 | filanesib -0.122 | zotarolimus 0.018 | idasanutlin -0.049 | alisertib 0.001 | [2] 0.115 | gefitinib 0.044 | [3] 0.055 | lapatinib 0.013 | pictilisib 0.124

PPP1R9B (UniProt Q96SB3)
inactive: [1] -0.205 | filanesib 0.15 | zotarolimus -0.052 | idasanutlin 0.073 | alisertib -0.028 | [2] 0.047 | gefitinib 0.172 | [3] 0.005 | lapatinib -0.121 | pictilisib -0.1

PRRC2B (UniProt Q5JSZ5)
inactive: [1] -0.087 | filanesib 0.015 | zotarolimus -0.089 | idasanutlin 0.056 | alisertib -0.059 | [2] -0.048 | gefitinib -0.008 | [3] 0.117 | lapatinib 0.023 | pictilisib -0.006

PPM1F (UniProt P49593)
inactive: [1] 0.006 | filanesib -0.04 | zotarolimus 0.025 | idasanutlin -0.052 | alisertib -0.017 | [2] 0.055 | gefitinib -0.04 | [3] 0.013 | lapatinib -0.022 | pictilisib 0.012

PPP4R3A (UniProt Q6IN85)
inactive: [1] -0.036 | filanesib 0.029 | zotarolimus 0.018 | idasanutlin -0.086 | alisertib -0.027 | [2] 0.024 | gefitinib 0.006 | [3] 0.097 | lapatinib 0.12 | pictilisib -0.028

PPM1E (UniProt Q8WY54)
inactive: [1] -0.069 | filanesib 0.002 | zotarolimus 0.065 | idasanutlin -0.08 | alisertib -0.052 | [2] 0.094 | gefitinib -0.006 | [3] 0.142 | lapatinib 0.004 | pictilisib 0.056

PRPF38B (UniProt Q5VTL8)
inactive: [1] -0.004 | filanesib 0.163 | zotarolimus 0.016 | idasanutlin 0.039 | alisertib -0.09 | [2] 0.083 | gefitinib 0.002 | [3] 0.043 | lapatinib 0.027 | pictilisib 0.065

PPP1R12A (UniProt O14974)
inactive: [1] 0.003 | filanesib 0.064 | zotarolimus 0.048 | idasanutlin 0.041 | alisertib 0.028 | gefitinib 0.009 | [3] -0.006 | lapatinib 0.036 | pictilisib 0.005
active: [2] -0.658

PRRC1 (UniProt Q96M27)
inactive: [1] -0.034 | filanesib -0.009 | zotarolimus -0.015 | idasanutlin -0.012 | alisertib -0.053 | [2] 0.009 | gefitinib 0.016 | [3] 0.07 | lapatinib -0.022 | pictilisib 0.017

PRPF6 (UniProt O94906)
inactive: [1] -1.17 | filanesib -0.26 | idasanutlin -0.008 | pictilisib 0.127

PPOX (UniProt P50336)
active: idasanutlin 0.574
inactive: [1] 0.324 | filanesib -0.226 | zotarolimus 0.352 | alisertib 0.033 | [2] -0.178 | gefitinib 0.116 | [3] 0.021 | lapatinib 0.471 | pictilisib 0.475

PRG4 (UniProt Q92954)
active: zotarolimus -0.955
inactive: [1] 0.17 | filanesib 0.081 | idasanutlin 0.174 | alisertib 0.01 | gefitinib 0.034 | [3] 0.229 | pictilisib -0.062

PPP3R1 (UniProt P63098)
inactive: [1] -0.005 | filanesib -0.17 | zotarolimus -0.022 | idasanutlin -0.037 | alisertib -0.005 | [2] -0.019 | gefitinib -0.022 | [3] 0.004 | lapatinib 0.004 | pictilisib 0.005

PRKCG (UniProt P05129)
inactive: [1] -0.071 | filanesib 0.019 | zotarolimus 0.118 | idasanutlin -0.011 | alisertib -0.01 | [2] 0.098 | gefitinib -0.025 | [3] -0.17 | lapatinib 0.055 | pictilisib 0.113

PRSS2 (UniProt P07478)
inactive: [1] 0.017 | filanesib 0.028 | zotarolimus 0.072 | idasanutlin -0.056 | [2] 0.027 | gefitinib 0.039 | lapatinib 0.166

PPP2CB (UniProt P62714)
inactive: [1] 0.011 | filanesib -0.023 | zotarolimus -0.03 | idasanutlin 0.016 | alisertib -0.041 | [2] 0.007 | gefitinib 0.006 | [3] 0.049 | lapatinib 0.031 | pictilisib 0.039

PROCR (UniProt Q9UNN8)
inactive: [1] -0.122 | filanesib -0.162 | zotarolimus -0.084 | idasanutlin 0.117 | [2] 0.102 | gefitinib 0.011 | lapatinib 0.024 | pictilisib 0.131

PRAME (UniProt P78395)
inactive: [1] 0.026 | filanesib 0.151 | zotarolimus -0.004 | idasanutlin 0.088 | alisertib 0.003 | [2] -0.042 | gefitinib -0.049 | [3] -0.155 | lapatinib 0.089 | pictilisib -0.099

PRADC1 (UniProt Q9BSG0)
inactive: [1] 0.003 | filanesib 0.059 | zotarolimus 0.065 | alisertib -0.182 | [3] -0.127 | pictilisib 0.12

PRR3 (UniProt P79522)
inactive: [1] -0.069 | filanesib 0.352 | pictilisib -0.103

PRKDC (UniProt P78527)
inactive: [1] 0.009 | filanesib -0.049 | zotarolimus 0.029 | idasanutlin -0.073 | alisertib -0.056 | [2] 0.026 | [3] -0.064 | lapatinib -0.005 | pictilisib -0.015

PRMT7 (UniProt Q9NVM4)
inactive: [1] -0.174 | filanesib -0.072 | zotarolimus -0.008 | idasanutlin -0.004 | alisertib -0.073 | [2] -0.037 | gefitinib 0.05 | [3] -0.018 | lapatinib 0.026 | pictilisib -0.009

PRKD3 (UniProt O94806)
inactive: [1] -0.062 | filanesib -0.002 | zotarolimus 0.084 | idasanutlin 0.171 | alisertib -0.039 | [3] 0.149 | pictilisib 0.255

PPP3CC isoform 3 (UniProt P48454)
inactive: [1] 0.002 | filanesib -0.059 | zotarolimus -0.015 | idasanutlin -0.099 | alisertib -0.058 | [2] 0.009 | gefitinib 0.005 | [3] 0.06 | lapatinib -0.037 | pictilisib 0.037

PPP1R9A isoform 3 (UniProt Q9ULJ8)
inactive: [1] -0.016 | filanesib 0.13 | alisertib -0.444 | gefitinib 0.068 | [3] -0.163

PRELID1 (UniProt Q9Y255)
inactive: [1] 0.392 | filanesib 0.013 | alisertib -0.054 | [2] 0.179 | gefitinib 0.047 | [3] -0.164 | lapatinib 0.061 | pictilisib 0.057

PPP1CB (UniProt P62140)
inactive: [1] 0 | filanesib -0.001 | zotarolimus -0.004 | idasanutlin 0 | alisertib -0.048 | [2] -0.051 | gefitinib 0.034 | [3] 0.043 | lapatinib 0.008 | pictilisib 0.12

PPP1R14C (UniProt Q8TAE6)
inactive: [1] -0.145 | filanesib 0.103 | zotarolimus -0.006 | idasanutlin -0.288 | alisertib 0.003 | [2] -0.079 | gefitinib 0.037 | [3] 0.178 | lapatinib -0.117 | pictilisib 0.096

PRMT1 (UniProt Q99873)
inactive: [1] -0.046 | filanesib -0.099 | zotarolimus 0.018 | idasanutlin -0.052 | alisertib -0.005 | [2] 0.02 | gefitinib -0.019 | [3] 0.029 | lapatinib 0.012 | pictilisib -0.015

PRRC2A (UniProt P48634)
inactive: [1] -0.079 | filanesib 0.253 | zotarolimus 0.002 | idasanutlin 0.102 | alisertib -0.022 | [2] -0.033 | gefitinib 0.004 | [3] -0.018 | lapatinib 0.058 | pictilisib 0.014

PRMT8 (UniProt Q9NR22)
inactive: [1] -0.143 | filanesib -0.162 | zotarolimus -0.014 | idasanutlin -0.109 | alisertib -0.028 | [2] -0.019 | gefitinib 0.002 | [3] 0.042 | lapatinib 0.145 | pictilisib 0.025
